{
  "source": "patent US20110256298A1",
  "about": "“BEER AND BEER-BASED BEVERAGES AND METHOD OF MODIFICATION OF POLYPHENOLS AND SILICON CONTENT IN THESE BEVERAGES” (priority 2009, published 2011)",
  "test": "Total amount of Silybum marianum polyphenols in bottled beer by HPLC",
  "format": "physicochemical",
  "conditions": "example 1 mixture dosed at 100 mg silymarin per liter",
  "experimental": "The total amount of Silybum marianum polyphenols in beers was determined by HPLC in bottled beer as a sum of silymarin components.",
  "note": "At least one compound was matched to its structure with a doubt left.",
  "data": [
    {"smiles": "COc1cc([C@@H]2[C@H]3CO[C@@]4(O)C(=O)[C@@H]2C=C([C@H]2Oc5cc(O)cc(O)c5C(=O)[C@@H]2O)[C@@H]34)ccc1O", "note": "[Silydianin]", "values": [
      {"measurement": "Content in DIA beer", "setting": "bottled DIA beer", "value": 3.9, "unit": "mg/L"},
      {"measurement": "Content in PILS 12% beer", "setting": "bottled PILS 12% beer", "value": 5.2, "unit": "mg/L"},
      {"measurement": "Content in Non-alcoholic beer", "setting": "bottled non-alcoholic beer", "value": 7.6, "unit": "mg/L"}
    ]}
  ]
}
